Some entries share one result that the patent states for a list of compounds.
Experiment: Stability at 40° C./75% RH and 25° C./60% RH
Assay type: physicochemical

## CCC(=C(c1ccc(O)cc1)c1ccc(OCCNC)cc1)c1ccccc1 [(Z)-endoxifen, 4-hydroxy-N-desmethyl-tamoxifen]
25±2° C./60%±5% RH
  time stable: at least 3 m
40° C.±2° C./75%±5% RH
  time stable: at least 3 m
